Test results reported in PubChem BioAssay AID1347076 (National Center for Advancing Translational Sciences (NCATS), 2019).
In all, about 400,000 compounds went through this assay and about 13,000 (3.2%) were called active. The inconclusive results got no clear call from the source; some entries with a clear call stand among them for comparison. Calls come from the whole dose curve; as a rule, active = well fitted cell-killing curve with a large enough effect; inconclusive = small, poorly fitted or top-dose-only effect, or effect the other way; inactive = flat fitted curve, though single readings scatter. Where the call is inconclusive, the potency comes from a doubtful curve fit.
Potency is the fitted concentration of half-maximal effect.

Experiment: qHTS assay for MDR1-selective chemotherapeutics: Primary screen using the drug-selected MDR subline cells KB-V1; note: nearly all actives have a fitted effect of over 60% in size
Conditions: KB-V1 MDR cells viability, CellTiter-Glo, 72 h; series mostly up to 46.1 µM
Outline: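 Following 72 h at 37 degrees C with compound, KB-V1 cell viability was read by CellTiter-Glo luminescence, medium being phenol-red-free DMEM plus 10% FBS; concentration-response parameters came from normalized, curve-fitted qHTS data.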
For `Cc1nn(S(=O)(=O)c2cccs2)c(C)c1Sc1ccc([N+](=O)[O-])cc1`, the Potency was inconclusive: 29.1 µM [cytotoxic, single point].
In the case of `O=C(NC(=S)N1CCN(C(c2ccccc2)c2ccccc2)CC1)c1ccc(S(=O)(=O)N2CCOCC2)cc1`, the Potency is reported as active: 20.6 µM.
For `Cc1ccc(NC(=O)CSc2nnc3nc(C)cc(C)n23)cc1`, the Potency was “inactive”.
For `O=C(CN1CCN(CC(=O)Nc2ccc(OCc3ccccc3)cc2)CC1)Nc1ccc(F)cc1`, the Potency was active: 3.66 µM.
In the case of `O=C(NCCCCNC(=O)c1ccc(Cl)s1)c1ccc(Cl)s1`, the Potency is reported as “inactive”.
In the case of `Cc1ccc2c(c1)C(=O)C(=O)N2Cc1ccc(F)cc1`, the Potency is reported as inconclusive: 10.3 µM [cytotoxic, partial curve].
With `COCCN=C1NN=C(c2cc(C)n(CC3CCCO3)c2C)CS1` (centres undefined) the Potency was “inactive”.
In the case of `O=C(CNCc1cccnc1)Nc1cc(C(F)(F)F)ccc1N1CCOCC1`, the Potency is reported as inconclusive: 20.6 µM [cytotoxic, partial curve].
With `COc1cccc(CNC(=O)[C@@H]2CCCN2C(=O)[C@H]2CCCCN2C(=O)c2c(F)cccc2F)c1` the Potency was inconclusive: 6.51 µM [cytotoxic, partial curve].
For `CC(C)C[C@H](NC(=O)c1nc[nH]c1C(=O)NCc1ccc(CNC(=O)OC(C)(C)C)cc1)C(=O)OC(C)(C)C`, the Potency was inconclusive: 29.1 µM [cytotoxic, single point].
With `O=c1cc(CN2CCN(S(=O)(=O)c3cccc(Cl)c3)CC2)c2ccc(O)cc2o1` the Potency was “inactive”.
With `CC(=O)c1ccc(N2CCN(c3ccc(NC(=O)c4cccs4)cc3C(=O)O)CC2)cc1` the Potency was inconclusive: 29.1 µM [rising, partial curve, poor fit].
In the case of `O=C(COC(=O)/C=C/c1ccccc1)NNC(=O)c1ccccc1F`, the Potency is reported as inconclusive: 18.4 µM [rising, single point].
For `O=C1C=C(N2CCCCC2)c2ccccc2C1=O`, the Potency was active: 10.3 µM.
In the case of `NC(=O)C1CCN(c2ccc3c(c2)S(=O)(=O)c2ccccc2C3=O)CC1`, the Potency is reported as “inactive”.
With `CCCn1c(N)c(C(=O)CSc2nnc(Cc3cccs3)n2C2CC2)c(=O)n(C)c1=O` the Potency was “inactive”.
With `COc1ccc(CNC(=O)CN2C(=O)CCSc3ccc(S(=O)(=O)N4CCCC4)cc32)cc1` the Potency was “inactive”.
In the case of `Cc1cc(Cl)ccc1OCC(=O)NNC(=O)c1cccnc1`, the Potency is reported as “inactive”.
With `COC(=O)c1ccc(CNC(=O)C2CCC(=O)N(CCN3CCOCC3)C2)cc1` (centres undefined) the Potency was inconclusive: 20.6 µM [rising, single point].
For `Cc1[nH]nc2ncc(C(=O)c3ccccc3O)cc12`, the Potency was “inactive”.
In the case of `C=CCn1c(SCC(=O)NCc2ccccc2)nnc1C1CCCCC1`, the Potency is reported as inconclusive: 8.2 µM [cytotoxic, partial curve, poor fit].
For `CCCCCCCNC1=CC(=O)CC(c2ccccc2)C1` (centres undefined), the Potency was inconclusive: 3.66 µM [cytotoxic, partial curve, poor fit].
For `CCOC(=O)CSc1c(-c2cccs2)[nH]c2ccccc12`, the Potency was inconclusive: 29.1 µM [cytotoxic, single point].
In the case of `Cc1ccc(NC(=S)NN(C)c2cc(C)nc(C)n2)cc1`, the Potency is reported as active: 18.4 µM.
In the case of `COC1=CC(=O)OC(c2cccc(Cl)c2)C1` (centres undefined), the Potency is reported as “inactive”.
In the case of `Cc1cc(-c2nnc(SCC(=O)N3C(C)CCCC3C)o2)no1` (centres undefined), the Potency is reported as “inactive”.
With `O=C(Nc1nc2ccc(Cl)cc2s1)[C@@H]1CCCN1C(=O)c1cccs1` the Potency was “inactive”.
In the case of `COc1ccc(Br)cc1/C=N/n1nnnc1N`, the Potency is reported as inconclusive: 5.17 µM [rising, full curve].
For `Cc1ccc(C)c(NC(=O)CN2C(=O)c3cccc4cccc2c34)c1`, the Potency was “inactive”.
For `Cc1ccc(CNc2oc(-c3ccco3)nc2C#N)cc1`, the Potency was inconclusive: 16.4 µM [cytotoxic, partial curve, poor fit].
For `CCc1ccc(Nc2nnc(SCC(=O)N(C)CC(=O)Nc3ccccc3CC)s2)cc1`, the Potency was inconclusive: 29.1 µM [cytotoxic, single point].
With `O=C(NN=Cc1cccc2ccccc12)C1CC1` the Potency was inconclusive: 16.4 µM [cytotoxic, single point].
For `O=C(CSc1nc(-c2cccc(Cl)c2)nc2cc(=O)[nH]n12)Nc1ccccc1`, the Potency was inconclusive: 8.2 µM [rising, partial curve].
With `COCCNC(=O)c1ccc(-n2c(SCc3cccnc3)nc3ccccc3c2=O)cc1` the Potency was inconclusive: 18.4 µM [cytotoxic, partial curve, poor fit].
With `Cc1ccc(C(=O)N/N=C/c2cc(C)n(-c3ccc(Br)cc3)c2C)cc1[N+](=O)[O-]` the Potency was inconclusive: 23.1 µM [cytotoxic, partial curve, poor fit].
With `CC(C)N(C(=O)Cn1c(-c2ccccc2Cl)nc2ccccc21)c1ccccc1` the Potency was active: 10.3 µM.
With `COc1ccc2c(c1)[C@H]1[C@H](CO2)[C@H](c2ccccc2)[C@]2(C)C(=O)Nc3ccc(F)cc3C(=O)N12` the Potency was inconclusive: 25.9 µM [cytotoxic, partial curve, poor fit].
In the case of `COCCN1C(=O)c2ccccc2C(C(=O)Nc2ccc3c(c2)OCCO3)C1c1ccc(F)cc1` (centres undefined), the Potency is reported as inconclusive: 16.4 µM [cytotoxic, single point].
For `Cn1c(COc2ccc(Cl)cc2)nc2ccccc2c1=O`, the Potency was inconclusive: 13 µM [cytotoxic, partial curve, poor fit].
For `CCN(CC1COc2ccccc2O1)C(=O)c1ccc(Cl)c(S(=O)(=O)N2CC(C)OC(C)C2)c1` (centres undefined), the Potency was inconclusive: 16.4 µM [cytotoxic, single point].
With `COc1ccc(S(=O)(=O)N2CCN(CC(O)COc3ccc(C#N)cc3)CC2)cc1OC` (centres undefined) the Potency was inconclusive: 18.4 µM [cytotoxic, single point].
In the case of `Fc1ccc(OCc2nn3c(Cn4nnc5ccccc54)nnc3s2)cc1`, the Potency is reported as inconclusive: 14.6 µM [cytotoxic, partial curve].
In the case of `COc1cccc(Sc2ccccc2/C=N/NC(N)=O)c1`, the Potency is reported as inconclusive: 5.8 µM [cytotoxic, full curve].
In the case of `Cc1ccc(S(=O)(=O)c2cnc(SCC(=O)Nc3cccc(Cl)c3)nc2N)cc1C`, the Potency is reported as “inactive”.
With `O=C(c1ccc2c3n(nc2c1)-c1ccccc1CO3)N1CCCCC1` the Potency was active: 10.3 µM.
For `CC(C)(C)C(=O)CC1(O)C(=O)N(Cc2ccc(Cl)cc2)c2ccccc21` (centres undefined), the Potency was inconclusive: 18.4 µM [cytotoxic, single point].
For `COc1ccc(C2CC(=O)C3=C(C2)Nc2ccccc2N(C(=O)C2CC2)C3c2cccnc2)cc1OC` (centres undefined), the Potency was inconclusive: 29.1 µM [rising, partial curve, poor fit].
In the case of `CCc1c(C)c2c(C)nn(-c3ccccc3)c2oc1=O`, the Potency is reported as inconclusive: 11.6 µM [cytotoxic, partial curve, poor fit].
In the case of `COc1ccc(C(CC(=O)O)NC(=O)c2cc3ccccc3oc2=O)cc1OC` (centres undefined), the Potency is reported as “inactive”.
For `CCOC(=O)CNC(=O)CSc1nnc(Cn2c(=O)sc3ccccc32)n1-c1ccccc1C`, the Potency was “inactive”.
With `Cc1cc(C)c(/C=C(\C#N)S(=O)(=O)c2ccccc2)[nH]1` the Potency was inconclusive: 18.4 µM [cytotoxic, single point].
For `CCN(CC)C(=O)Cn1cc(SCC(=O)Nc2cccc(F)c2)c2ccccc21`, the Potency was inconclusive: 16.4 µM [cytotoxic, single point].
For `Oc1ccc(Nc2nc3ccccc3n3cnnc23)cc1`, the Potency was “inactive”.
In the case of `COc1ccc(NC(=O)c2nc[nH]c2C(=O)N[C@@H](CC(C)C)C(=O)OC(C)(C)C)cc1`, the Potency is reported as inconclusive: 29.1 µM [cytotoxic, single point].
With `CC(c1ccccc1)n1c(Br)nc2c1c(=O)[nH]c(=O)n2C` (centres undefined) the Potency was inconclusive: 16.4 µM [cytotoxic, partial curve, poor fit].
For `Cc1ccc(/C=N/NC(=O)NC23CC4CC(CC(C4)C2)C3)o1`, the Potency was inconclusive: 0.0082 µM [rising, full curve, poor fit].
For `COc1cc2c3c(c1OC)C1(C=CC(=O)C=C1)CC3N(C(=O)c1ccccc1)CC2` (centres undefined), the Potency was inconclusive: 11.6 µM [cytotoxic, partial curve, poor fit].
For `O=C(Nc1cccc2cccnc12)c1ccccc1[N+](=O)[O-]`, the Potency was inconclusive: 23.1 µM [cytotoxic, single point].
In the case of `OC(c1ccccc1)(c1nc(-c2cc(F)cc(F)c2)cs1)C(F)(F)F` (centres undefined), the Potency is reported as “inactive”.
In the case of `CC1(CO)COC(c2ccccc2)=N1` (centres undefined), the Potency is reported as “inactive”.
With `COc1ccccc1N1CCN(CC(O)COc2ccc3c(C)cc(=O)oc3c2)CC1` (centres undefined) the Potency was inconclusive: 7.31 µM [cytotoxic, partial curve].
For `Cc1ccc(C2c3c(-c4cc(C)ccc4O)n[nH]c3C(=O)N2Cc2ccco2)cc1` (centres undefined), the Potency was inconclusive: 4.61 µM [cytotoxic, partial curve, poor fit].
For `Cc1oc2cc3c(C(=O)N4CCCCC4)c(C)oc3cc2c1C(=O)N1CCCCC1`, the Potency was inconclusive: 16.4 µM [cytotoxic, partial curve].
With `Cc1ccc(-n2c(C)cc(C(=O)COc3c(CO)cc(F)cc3CO)c2C)cc1C` the Potency was active: 7.31 µM.
With `Cc1nc(N2N=C(c3ccc(Cl)cc3)CC2c2ccco2)sc1C(=O)N(C)C` (centres undefined) the Potency was inconclusive: 6.51 µM [cytotoxic, partial curve].
For `CCc1ccc(NC(=O)C2CCCN(S(C)(=O)=O)C2)cc1` (centres undefined), the Potency was “inactive”.
With `Cc1ccccc1CSc1nnc(-c2cccs2)n1Cc1ccco1` the Potency was active: 5.8 µM.
For `COc1ccc(-n2cc(-c3ccccc3)c3c(N4CCN(CCO)CC4)ncnc32)cc1`, the Potency was “inactive”.
With `O=S(=O)(N=C(NS(=O)(=O)c1ccc(Cl)cc1)c1ccccc1)c1ccc(Cl)cc1` the Potency was inconclusive: 18.4 µM [cytotoxic, partial curve, poor fit].
